Results: PubChem BioAssay AID540256 (National Center for Advancing Translational Sciences (NCATS), 2011)
The campaign covered roughly 300,000 compounds. About 3,700 (1.2%) were called active. The shares of active, inactive and inconclusive entries below differ from those in the screen. Calls follow the shape of the full dose curve; tested in HEK293 cells. Where the call is inconclusive, the potency comes from a doubtful curve fit. Some compounds were tested as several samples or in several runs, with calls that do not always agree.

Assay: qHTS for Inhibitors of binding or entry into cells for Lassa Virus; also: nearly all actives have a fitted effect of over 50% in size
Conditions: Lassa virus pseudotype entry inhibition, cell reporter; series mostly up to 37.9 µM
Potency is read from the fitted curve at half-maximal effect.

Row | SMILES | Potency
1 | COc1cccc(OCC(=O)NNC(=O)C(=O)Nc2ccc(OC)cc2OC)c1 | inactive
2 | O=C1CN(C(=O)COc2ccc(Cl)cc2)C(c2ccc(F)cc2)c2cc(Cl)ccc2N1 (configuration not stated) | inconclusive: 10 µM [inhibitor, partial curve, poor fit]
3 | O=C(N/N=C/c1cn(-c2ccccc2)nc1-c1cccs1)c1ccncc1 | inconclusive: 0.224 µM [activator, full curve, poor fit]
4 | CC(=O)c1ccc(C(=O)N(Cc2cccnc2)c2nc3c(C)c(C)ccc3s2)cc1 | active: 12.6 µM
5 | CCOC(=O)N1CCN(C(=O)c2ccc3c(c2)N(Cc2cccc(Cl)c2)C(=O)c2ccccc2S3=O)CC1 (configuration not stated) | inconclusive: 22.4 µM [inhibitor, partial curve, poor fit]
6 | C=CCN(CC=C)C(=S)NC(=O)c1ccc(C)c(Br)c1 | inconclusive: 10.3 µM [inhibitor, partial curve, poor fit]
7 | CCOC(=O)c1cnc2scnn2c1=O | inactive
8 | Cc1[nH]c2ccccc2c1C(=O)C(=O)NCc1cccs1 | inconclusive: 12.6 µM [activator, single point]
9 | COc1cccc(/C=N/NC(=O)CNC(=O)C(c2ccccc2)c2ccccc2)c1O | active: 10 µM
10 | COc1ccc(S(=O)(=O)N2CCCC2C(=O)n2nc(C)cc2C)cc1 (configuration not stated) | inconclusive: 0.794 µM [inhibitor, full curve, poor fit]
11 | Cc1cc(Nc2ccc(F)cc2)nc(N)n1 | inactive
12 | c1ccc(CCn2nnnc2C(c2cccnc2)N2CCOCC2)cc1 (configuration not stated) | inconclusive: 0.126 µM [inhibitor, full curve, poor fit]
13 | c1ccc2c(c1)CC/C2=N/Nc1nc2ccccc2[nH]1 | inconclusive: 1.41 µM [activator, partial curve, poor fit]
14 | O=C(/C=C\Nc1ccc2c(c1)OCO2)c1ccccn1 | active: 0.447 µM
15 | CCOC(=O)/C(=C/C=C/c1ccccc1)NC(=O)c1ccccc1 | inactive
16 | CCOc1ccc(NC(=O)C2CCN(S(=O)(=O)c3c(C)noc3/C=C/c3ccco3)CC2)cc1 | inactive
17 | Cc1c(CC(=O)O)c(=O)oc2cc3occ(-c4ccc(F)cc4)c3cc12 | inconclusive: 22.4 µM [activator, single point]
18 | c1ccc(N2CCN(Cc3cnc(N4CCOCC4)s3)CC2)cc1 | inconclusive: 11.2 µM [inhibitor, partial curve]
19 | CCOC(=O)c1ccc(NC(=O)C23CCC(C)(C(=O)O2)C3(C)C)cc1 (configuration not stated) | inconclusive: 3.66 µM [activator, full curve, poor fit]
20 | COc1ccc(N=c2oc3cc(O)ccc3cc2C(=O)NCC2CCCO2)cc1 (configuration not stated) | inconclusive: 18.3 µM [activator, partial curve, poor fit]
21 | O=C(Nc1ccc(F)cc1)c1ccc(-n2ccnc2)nc1 | inactive
22 | COc1ccc(-c2csc(NC(=O)c3ccoc3C)n2)cc1 | inconclusive: 2.82 µM [activator, single point]
23 | N#Cc1ccc(NC(=O)Nc2ccc(Cl)cc2)cc1 | inconclusive: 22.4 µM [inhibitor, single point]

Some of these compounds in order of count of non-hydrogen atoms, falling.
Row | SMILES | Potency
8 | Cc1[nH]c2ccccc2c1C(=O)C(=O)NCc1cccs1 | inconclusive: 12.6 µM [activator, single point]
14 | O=C(/C=C\Nc1ccc2c(c1)OCO2)c1ccccn1 | active: 0.447 µM
7 | CCOC(=O)c1cnc2scnn2c1=O | inactive

The results go on:

Row | SMILES | Potency
24 | CC(C)CC(NC(=O)C1CCCCC1)C(=O)Nc1cccc(C(F)(F)F)c1 (configuration not stated) | inactive
25 | Cc1ccc(-c2nc(S(=O)(=O)c3ccccc3)c(SCC(=O)NC3CCCCC3)o2)cc1 | inconclusive: 6.31 µM [inhibitor, single point]
26 | CCOC(=O)C1CCN(C(=O)CN(c2cccc(C(F)(F)F)c2)S(C)(=O)=O)CC1 | inactive
27 | CC(C)c1ccc(NC(=O)CN2C(=O)CSc3ccc(S(=O)(=O)N4CCCC4)cc32)cc1 | inactive
28 | NC(=O)N/N=C/c1ccc(N2CCOCC2)s1 | inconclusive: 5.01 µM [inhibitor, full curve, poor fit]
29 | CCCCNc1c2c3c(cccc3n(C)c1=O)C(=O)c1ccccc1-2 | inactive
30 | COc1ccc(N2CC(C)Cn3c2nc2c3c(=O)[nH]c(=O)n2C)cc1 (configuration not stated) | inactive
31 | COc1ccc2cc(C(=O)Nc3ccc(Cl)cc3)sc(=O)c2c1OC | inconclusive: 7.08 µM [inhibitor, partial curve, poor fit]
32 | CC1=C(c2ccc(Cl)cc2)S(=O)(=O)N=C1N1CCC(C(=O)NCCc2ccco2)CC1 | inconclusive: 7.08 µM [inhibitor, partial curve, poor fit]
33 | O=C(CCCn1c(=O)c2sccc2n(Cc2ccc(Cl)cc2)c1=O)NCc1ccc2c(c1)OCO2 | inactive
34 | CN1CCCC1CCOC(C)(c1ccccc1)c1ccc(Cl)cc1 (configuration not stated) | active: 20.6 µM
35 | COC(=O)c1cc2c(s1)-c1cc(F)ccc1OC2 | inconclusive: 35.5 µM [inhibitor, single point]
36 | O=C(Cc1ccc(Cl)cc1)N/N=C1\CCCc2ccccc21 | inconclusive: 29.1 µM [inhibitor, single point]
37 | FC(F)(F)C1=Nc2cccc3cccc(c23)N1 | inconclusive: 7.94 µM [inhibitor, single point]
38 | O=S(=O)(Nc1cc2nc3ccccc3nc2n1Cc1ccccc1)c1ccc(Cl)cc1 | active: 7.31 µM
39 | CC(=O)c1ccc(NC(=O)CSc2nccn2CCc2ccccc2)cc1 | inconclusive: 12.6 µM [inhibitor, partial curve, poor fit]
40 | O=S(=O)([N-]c1nc2ccccc2nc1-n1cc[n+](Cc2ccccc2)c1)c1ccccc1 | inconclusive: 14.1 µM [activator, partial curve, poor fit]
41 | CCC1CCCCN1C(=O)CSc1nc2ccsc2c(=O)n1Cc1ccccc1 (configuration not stated) | inconclusive: 23.1 µM [inhibitor, single point]
42 | Nc1cc([N+](=O)[O-])ccc1Nc1ccccc1 | inconclusive: 35.5 µM [inhibitor, partial curve, poor fit]
43 | CC(Oc1ccc2c(c1)oc(=O)c1ccccc12)C(=O)NCCCN1CCOCC1 (configuration not stated) | inconclusive: 5.62 µM [inhibitor, single point]
44 | CC(Nc1cc(=O)n(C)c(=O)[nH]1)c1ccccc1 (configuration not stated) | inconclusive: 0.651 µM [activator, single point]
45 | Cc1cccc(N2CCN(C(=O)c3cccn3-c3nnc(N4CCCCC4)s3)CC2)c1C | inconclusive: 11.2 µM [inhibitor, partial curve, poor fit]
46 | Cc1cc(C)c(C#N)c(SCC(=O)Nc2ccccc2C(N)=O)n1 | inconclusive: 7.3 µM [inhibitor, partial curve, poor fit]

2 of the compounds above, with tabs.
Row	SMILES	Potency
26	CCOC(=O)C1CCN(C(=O)CN(c2cccc(C(F)(F)F)c2)S(C)(=O)=O)CC1	inactive
41	CCC1CCCCN1C(=O)CSc1nc2ccsc2c(=O)n1Cc1ccccc1 (configuration not stated)	inconclusive: 23.1 µM [inhibitor, single point]

Continued.

Row | SMILES | Potency
47 | Cc1ccc(C(=O)/C=C/c2cc(C#N)n(C)c2C)cc1 | inactive
48 | O=C(NC(=S)NC1C2CC3CC(C2)CC1C3)c1ccccc1 (configuration not stated) | inconclusive: 17.8 µM [inhibitor, partial curve, poor fit]
49 | CC(C)Oc1ccccc1C1CC(=O)Nc2cc3c(cc21)OCCO3 (configuration not stated) | inconclusive: 0.461 µM [inhibitor, full curve, poor fit]
50 | COc1ccc(NC(C)C(=O)N/N=C/c2ccccc2OCc2ccc(Br)cc2)cc1 (configuration not stated) | inconclusive: 25.1 µM [inhibitor, single point]
51 | COc1ccc(CCNC(=O)CCc2cn(Cc3ccc(F)cc3)c3ccccc23)cc1OC | inconclusive: 14.1 µM [inhibitor, single point]
52 | O=C(CN1C(=O)C2CC=C(Cl)CC2C1=O)N1CCOCC1 (configuration not stated) | inconclusive: 1.41 µM [activator, partial curve]
53 | COc1ccc(Oc2nnnn2-c2ccccc2)cc1 | inconclusive: 16.4 µM [activator, partial curve, poor fit]
54 | CCOC(=O)c1sc(/N=C/c2c(O)n(-c3cccc(C)c3)c(=O)[nH]c2=O)c(C#N)c1C | inconclusive: 29.1 µM [inhibitor, partial curve, poor fit]
55 | Cc1cc(C)c(-n2nnnc2SCC(=O)c2cc3ccccc3o2)c(C)c1 | inconclusive: 8.91 µM [inhibitor, partial curve]
56 | Cc1ccc(NC2=C(CC(=O)O)C(c3ccccc3)N(c3ccc(C)cc3)C2=O)cc1 (configuration not stated) | inconclusive: 2.51 µM [activator, full curve, poor fit]
57 | CCN(C(=O)Cc1c(C(=O)O)c(C)cn1C)c1cccc(Cl)c1 | inactive
58 | Cc1nc2nc(-c3ccccc3)[nH]n2c(=O)c1C | inactive
59 | O=C(/C=C/Nc1cccc(F)c1)c1ccco1 | inconclusive: 16.4 µM [inhibitor, single point]
60 | O=C(CNc1ccc(Br)cc1)c1ccc(O)cc1 | inconclusive: 3.16 µM [inhibitor, partial curve, poor fit]
61 | COc1ccc(OC)c(CNc2ncnc3c2nc2n3CCCC2)c1 | inconclusive: 7.08 µM [inhibitor, partial curve, poor fit]
62 | C/C(Sc1nnc(Cc2ccccc2)o1)=C(/O)c1ccccc1 | inconclusive: 2.59 µM [activator, partial curve]
63 | Cc1ccc(NC(=O)c2c(C)oc3ccc(O)c(CN(C)Cc4ccccc4)c23)c(C)c1 | inconclusive: 12.6 µM [inhibitor, partial curve, poor fit]
64 | O=C(O)c1cccc(N2C(=O)Nc3ccccc3N2O)c1 | inconclusive: 18.4 µM [activator, single point]
65 | COc1ccc(C(=O)C2CCN(C(=O)c3ccc(OC)cc3)CC2)cc1 | inconclusive: 12.6 µM [inhibitor, partial curve, poor fit]
66 | CC(=O)c1c(C(C)=O)c(C)n(-c2ccc3ncccc3c2)c1C | inconclusive: 25.1 µM [inhibitor, single point]
67 | CC(C)N(C(=O)Cn1cc(S(=O)(=O)CC(=O)NCc2ccccc2)c2ccccc21)C(C)C | inactive

Laid out differently: results already given.
Cc1c(CC(=O)O)c(=O)oc2cc3occ(-c4ccc(F)cc4)c3cc12
  Potency: inconclusive: 22.4 µM [activator, single point]
COc1ccc(N2CC(C)Cn3c2nc2c3c(=O)[nH]c(=O)n2C)cc1 (configuration not stated)
  Potency: inactive
